# Test results: PubChem BioAssay AID1347076 (National Center for Advancing Translational Sciences (NCATS), 2019)
# “And” between values parts separate entries of the source, which are not always exact repeats. Equal entries are not always repeated. About 13,000 (3.2%) of roughly 400,000 compounds were called active. Inconclusive results, whose numbers are uncertain, are shown with a selection of clear calls. Calls follow the shape of the dose curve; as a rule, active = well fitted cell-killing curve with a large enough effect; inconclusive = small, poorly fitted or top-dose-only effect, or effect the other way; inactive = flat fitted curve, though single readings scatter. A potency beside an inconclusive call is a rough fit, not a confirmed value.
# Assay: qHTS assay for MDR1-selective chemotherapeutics: Primary screen using the drug-selected MDR subline cells KB-V1; also: nearly all actives have a fitted effect of over 60% in size
# Conditions: KB-V1 MDR cells viability, CellTiter-Glo, 72 h; activity change, negative = cytotoxicity: at 46.1 µM (top of the series)
# In short: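 KB-V1 MDR subline cells in DMEM (phenol-red free, 10% FBS) exposed to compounds in qHTS concentration series for 72 h at 37 degrees C. Viability read by CellTiter-Glo luminescence; concentration-effect curves fitted after normalization and correction.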
# % is scaled to controls: 0 for no effect and ±100 for the full control effect; potency is read from the fitted curve at half-maximal effect.
SMILES,Potency,"activity change, negative = cytotoxicity"
O=C1NC(c2ccccc2)=C(c2nc3ccccc3s2)C(c2ccc(O)cc2)N1 (stereo not given),"inconclusive: 29.1 µM [cytotoxic, partial curve, poor fit]",
Cc1nn(-c2ccc(F)cc2)c(Cl)c1/C=N/NC(=O)c1ccc(O)cc1,,inactive: 4.13%
CC(=O)c1cccc(NC(=O)C2=CC(c3ccc4c(c3)OCO4)=NS(=O)(=O)N2C)c1,inactive,
COC(=O)c1sccc1NC(=O)/C=C/c1ccc(Cl)cc1Cl,"inconclusive: 23.1 µM [cytotoxic, partial curve, poor fit]",
Cn1c(=O)c2c(nc(NCc3ccco3)n2C/C=C/c2ccccc2)n(C)c1=O,active: 3.26 µM,
CC(NC(=O)c1ccnc(C(C)(C)C)c1)c1ccccc1 (stereo not given),active: 18.4 µM,
CCC(O)CNc1nc(-n2nc(C)cc2C)nc2sc3c(c12)CC(C)(C)OC3 (stereo not given),active: 2.59 µM,
CCCC[C@H](CN[C@@H](CNC)[C@H](C)CC)NCCC12CCC(CC1)C2,,inactive: 0%
COc1ccc(CCNc2nc(-c3ccncc3)cs2)cc1OC,"inconclusive: 16.4 µM [cytotoxic, partial curve, poor fit]",
CC1CCCCN1CCCNC(=O)c1[nH]c2ccccc2c1Sc1ccc(Cl)cc1 (stereo not given),,inactive: -4.42%
CCSc1nc(-c2ccc(OC)cc2)n(-c2nc3ccccc3s2)n1,active: 11.6 µM,
O=C(Cc1ccccc1)n1nc(-c2ccco2)nc1SCc1ccccc1,"inconclusive: 5.17 µM [rising, partial curve]",
CCCc1nnc(NC(=O)CCC(=O)N2CCN(C3c4ccccc4-c4ccccc43)CC2)s1,"inconclusive: 11.6 µM [cytotoxic, partial curve]",
O=C(NN=Cc1ccccc1O)C1CC1,"inconclusive: 18.4 µM [cytotoxic, single point]",
O=C(NCc1ccc2c(c1)OCO2)c1cc2ccccc2oc1=O,"inconclusive: 29.1 µM [rising, single point]",
Cc1cccc(C)c1NC(=O)CSc1nc2ncccc2o1,,inactive: 15.2%
COc1ccc(S(=O)(=O)N(CC(=O)NC2CC2)C2CCCCC2)cc1Cl,"inconclusive: 8.2 µM [cytotoxic, partial curve, poor fit]",
COc1ccc(C)cc1S(=O)(=O)n1cnc2ccccc21,"inconclusive: 7.31 µM [cytotoxic, partial curve, poor fit]",
COc1cc(SSc2cc(OC)cc([N+](=O)[O-])c2N)c(N)c([N+](=O)[O-])c1,"inconclusive: 25.9 µM [cytotoxic, single point]",
CCOC(=O)N1CCN(c2cc3[nH]c(=S)[nH]c3cc2F)CC1,,inactive: 16.7%
Cc1ccc(NC(=O)c2c(NC(=O)Cc3ccccc3)sc3c2CCC3)cc1,"inconclusive: 23.1 µM [cytotoxic, partial curve, poor fit]",
CC1Sc2ccc(C(=O)Nc3ccccc3OC(F)F)cc2NC1=O (stereo not given),"inconclusive: 18.4 µM [cytotoxic, single point]",
CCOC(=O)c1c(C(=O)OCC)c(C)n(CCc2ccc(OC)c(OC)c2)c1C,,inactive: -3.29%
CCN1C(=O)c2ccccc2Sc2ccc(NC(=O)Nc3ccccc3OC)cc21,"inconclusive: 20.6 µM [cytotoxic, partial curve]",

SMILES,Potency,"activity change, negative = cytotoxicity"
Cc1cc(C(=O)NNc2ccc(F)cc2)no1,,inactive: 4.48%
CCOc1ccc2nc(Nc3nc4ccc(NC(C)=O)cc4s3)sc2c1,"inconclusive: 18.4 µM [cytotoxic, single point]",
O=C(CCN1CCN(c2ccccc2)CC1)N/N=C/c1ccccc1OC(F)F,,inactive: 0%
CCOC(=O)[C@]12CCCC=C1N(Cc1ccc3c(c1)OCO3)C(=O)[C@H](CC(=O)NCC1CCCCC1)C2,,inactive: -25.2%
Fc1ccccc1OCCSc1ncnc2nc[nH]c12,,inactive: 25.9%
O=C(C(=O)N1CCC(Cc2ccccc2)CC1)c1ccccc1,"inconclusive: 23.1 µM [cytotoxic, partial curve] and inconclusive: 16.4 µM [cytotoxic, single point]",
CS(=O)(=O)c1ccc(N2CCN(S(=O)(=O)c3cccs3)CC2)c([N+](=O)[O-])c1,"inconclusive: 29.1 µM [cytotoxic, single point]",
COc1ccc(CCn2c(C3CCCCC3)nc3c(c(=O)c4ccccc4n3C)c2=O)cc1OC,"inconclusive: 0.0065 µM [cytotoxic, full curve, poor fit]",
CC(C)CNc1nc(SCC(=O)Nc2ccccc2)nc(N2CCOCC2)n1,"inconclusive: 16.4 µM [cytotoxic, partial curve]",
COc1cc(C2CC(=O)Nc3cc(C)c(C)cc32)cc(OC)c1OC (stereo not given),active: 16.4 µM,
CCn1c(SCC(=O)N/N=C(/C)c2ccncc2)nc2ccccc21,,inactive: 8.09%
COc1ccc(-c2nn3c(-c4ccco4)nnc3s2)cc1OC,"inconclusive: 29.1 µM [cytotoxic, single point]",
COc1ccccc1NC(=O)C1=C(C)Nc2nc(SCc3ccc(Cl)cc3)nn2C1c1ccccc1Cl (stereo not given),,inactive: -7.08%
O=S(=O)(c1cccc2cccnc12)N1CCN(c2ccc(F)cc2)CC1,,inactive: 0.686%
CC(=O)Nc1cc(-c2ccc(N(C)C)cc2)cn2c(-c3ccc(F)cc3)cnc12,,inactive: 3.79%
COc1ccc(S(=O)(=O)NC(C)CCc2ccccc2)cc1 (stereo not given),"inconclusive: 23.1 µM [cytotoxic, single point]",
COc1ccc(Cn2nnnc2CN(Cc2cc3ccc(C)cc3[nH]c2=O)C2CCCC2)cc1,"inconclusive: 8.2 µM [cytotoxic, partial curve]",
N#CCC(=O)Nc1ccc(C(=O)NCc2cccc(Cl)c2)cc1,,inactive: 0%
COc1cc(-c2nnc(Cn3cc(C(F)(F)F)ccc3=O)o2)cc(OC)c1OC,"inconclusive: 9.2 µM [cytotoxic, partial curve]",
CCOC(=O)c1c(C)[nH]c(C(=O)N2CCC(C(=O)OCC)CC2)c1C,,inactive: -16.6%
CCOC(=O)C1CCCN(S(=O)(=O)c2cc3c4c(c2)CCC(=O)N4CCC3)C1 (stereo not given),"inconclusive: 8.2 µM [cytotoxic, partial curve, poor fit]",
Cn1c(=O)c2cc3ccccc3nc2n(C)c1=O,"inconclusive: 29.1 µM [cytotoxic, single point]",
Cc1ccc(N=C2NC(=O)CS2)cc1C,active: 9.2 µM,
COc1c(C)cc(C(O)c2ncc(-c3ccc(Cl)cc3)[nH]2)cc1C (stereo not given),,inactive: -2.7%

# Reformatted with bars between the fields: entries from further up.
SMILES | Potency | activity change, negative = cytotoxicity
Cc1cccc(C)c1NC(=O)CSc1nc2ncccc2o1 |  | inactive: 15.2%
COc1ccc(S(=O)(=O)N(CC(=O)NC2CC2)C2CCCCC2)cc1Cl | inconclusive: 8.2 µM [cytotoxic, partial curve, poor fit] | 

# (list continues)

SMILES,Potency,"activity change, negative = cytotoxicity"
Fc1ccc(Nc2nc(NCc3cccs3)nc3ccsc23)cc1,,inactive: -13.5%
CCOc1ccc2[nH]c3c(NCCO)ncnc3c2c1,"inconclusive: 16.4 µM [rising, partial curve]",
CCC(=O)Nc1ccc2c(c1)nc(CCNC(=O)c1ccco1)n2C,"inconclusive: 16.4 µM [rising, partial curve, poor fit]",
CCOC(=O)[C@H]1[C@H]2COc3ccc(Br)cc3[C@@H]2N2C(=O)CN(C)C(=O)[C@@]12C,"inconclusive: 29.1 µM [cytotoxic, single point]",
CCc1nnc(NC(=O)[C@@H](NC(=O)c2ccc(OC)cc2)C(C)C)s1,"inconclusive: 29.1 µM [cytotoxic, partial curve, poor fit]",
O=C(c1cc([N+](=O)[O-])ccc1N1CCOCC1)N1CCN(c2ccc([N+](=O)[O-])cc2)CC1,"inconclusive: 16.4 µM [cytotoxic, single point]",
COCCCNC(=O)CN(c1cccc(Cl)c1)S(C)(=O)=O,,inactive: -5.66%
COc1ccc2cc(C#N)c(SCC(=O)N3CCCC3)nc2c1,"inconclusive: 35.5 µM [cytotoxic, single point]",
CCc1cc(-c2n[nH]c(=S)n2CC)cs1,"inconclusive: 18.4 µM [cytotoxic, single point]",
Cc1ccccc1NS(=O)(=O)c1ccc(C(=O)N2CCC2)cc1,"inconclusive: 18.4 µM [cytotoxic, partial curve, poor fit]",
c1ccc(CCNCCCOc2cccc3ccccc23)cc1,,inactive: -16.4%
Cc1nc(N2CCN(c3ccccn3)CC2)c2c(C)c(C(=O)Nc3ccccc3F)sc2n1,"inconclusive: 0.651 µM [cytotoxic, full curve]",
CC(=O)c1ccc(N2CCN(C(=O)c3n[nH]c4ccccc34)CC2)cc1,"inconclusive: 29.1 µM [cytotoxic, single point]",
O=C(Nc1ccc(F)cc1F)N1CCCN(c2ccc(C(F)(F)F)cn2)CC1,"inconclusive: 9.2 µM [cytotoxic, partial curve]",
Cc1c(Cl)cccc1NC(=S)Nc1ccc(S(=O)(=O)Nc2ncccn2)cc1,"inconclusive: 20.6 µM [cytotoxic, partial curve, poor fit]",
Cc1ccc(-c2cc(NC(=O)CSc3n[nH]c(N)n3)n(-c3ccccc3)n2)cc1,"inconclusive: 11.6 µM [rising, partial curve]",
COc1ccccc1N(CC(O)COc1ccccc1)S(=O)(=O)c1ccccc1 (stereo not given),active: 13 µM,
Cc1ccc(-n2ncc3c2CC(C)(C)CC3NC(=O)c2c(C)noc2C)cc1 (stereo not given),"inconclusive: 2.31 µM [cytotoxic, full curve]",
CCOc1ccc(-n2c(=O)c3sccc3n(CC(=O)NCC3CCCO3)c2=O)cc1 (stereo not given),"inconclusive: 3.26 µM [rising, partial curve, poor fit]",
COc1ccc(C(C)(C)C)cc1NC(=O)Nc1ccc2c(c1)OCO2,active: 23.1 µM,
COc1ccc(NS(=O)(=O)c2cccc(NC(=O)c3ccc(S(=O)(=O)N4CCCCCC4)cc3)c2)cc1,"inconclusive: 13 µM [cytotoxic, partial curve]",
O=C(CNS(=O)(=O)c1ccccc1)OCC(=O)c1ccc([N+](=O)[O-])cc1,,inactive: -8.9%
